The chains behind the UniProt entries cited, without tags or fusion partners. Where a name states a change or a piece, a line headed by the entry shows the natural chain unless it says otherwise.
UniProt P27037: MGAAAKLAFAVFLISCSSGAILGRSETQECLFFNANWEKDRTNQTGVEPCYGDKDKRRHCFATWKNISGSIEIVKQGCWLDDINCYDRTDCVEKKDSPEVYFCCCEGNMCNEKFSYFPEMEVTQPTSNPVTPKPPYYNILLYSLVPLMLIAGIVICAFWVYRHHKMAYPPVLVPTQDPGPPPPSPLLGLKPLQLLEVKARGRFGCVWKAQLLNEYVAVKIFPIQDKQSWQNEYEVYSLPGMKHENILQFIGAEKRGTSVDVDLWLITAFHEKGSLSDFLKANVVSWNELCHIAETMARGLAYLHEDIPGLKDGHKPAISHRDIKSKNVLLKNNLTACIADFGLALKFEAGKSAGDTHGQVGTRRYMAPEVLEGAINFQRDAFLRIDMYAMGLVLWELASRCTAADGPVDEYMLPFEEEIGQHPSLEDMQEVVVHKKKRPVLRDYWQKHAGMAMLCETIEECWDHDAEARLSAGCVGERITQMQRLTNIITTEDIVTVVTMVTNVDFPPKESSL
UniProt Q13873: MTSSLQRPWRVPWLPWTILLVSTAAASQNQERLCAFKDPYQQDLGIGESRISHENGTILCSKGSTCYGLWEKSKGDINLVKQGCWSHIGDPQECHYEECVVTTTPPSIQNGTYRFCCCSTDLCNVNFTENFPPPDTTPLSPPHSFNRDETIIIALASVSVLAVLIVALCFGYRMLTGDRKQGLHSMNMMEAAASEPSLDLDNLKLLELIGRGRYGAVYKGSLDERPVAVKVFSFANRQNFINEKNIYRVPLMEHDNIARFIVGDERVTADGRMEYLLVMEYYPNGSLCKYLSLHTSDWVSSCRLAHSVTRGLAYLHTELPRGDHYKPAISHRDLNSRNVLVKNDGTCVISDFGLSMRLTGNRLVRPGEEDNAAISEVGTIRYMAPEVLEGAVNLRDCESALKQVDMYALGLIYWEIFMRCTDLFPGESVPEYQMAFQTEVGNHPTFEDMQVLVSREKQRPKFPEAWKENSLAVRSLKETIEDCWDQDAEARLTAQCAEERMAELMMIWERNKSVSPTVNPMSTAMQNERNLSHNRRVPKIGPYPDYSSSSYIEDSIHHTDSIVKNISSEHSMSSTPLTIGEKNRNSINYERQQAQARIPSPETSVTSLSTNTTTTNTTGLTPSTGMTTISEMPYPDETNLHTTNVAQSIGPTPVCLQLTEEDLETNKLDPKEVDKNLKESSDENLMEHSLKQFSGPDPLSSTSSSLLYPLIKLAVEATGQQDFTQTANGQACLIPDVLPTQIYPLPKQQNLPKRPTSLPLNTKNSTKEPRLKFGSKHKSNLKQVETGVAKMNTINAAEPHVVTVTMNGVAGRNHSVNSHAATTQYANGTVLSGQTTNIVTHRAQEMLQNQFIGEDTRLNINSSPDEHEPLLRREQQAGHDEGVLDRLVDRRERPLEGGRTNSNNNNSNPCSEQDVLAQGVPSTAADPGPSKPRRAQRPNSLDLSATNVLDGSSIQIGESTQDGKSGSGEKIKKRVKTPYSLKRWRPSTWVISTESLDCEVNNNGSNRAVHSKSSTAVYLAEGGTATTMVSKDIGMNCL
UniProt Q13705: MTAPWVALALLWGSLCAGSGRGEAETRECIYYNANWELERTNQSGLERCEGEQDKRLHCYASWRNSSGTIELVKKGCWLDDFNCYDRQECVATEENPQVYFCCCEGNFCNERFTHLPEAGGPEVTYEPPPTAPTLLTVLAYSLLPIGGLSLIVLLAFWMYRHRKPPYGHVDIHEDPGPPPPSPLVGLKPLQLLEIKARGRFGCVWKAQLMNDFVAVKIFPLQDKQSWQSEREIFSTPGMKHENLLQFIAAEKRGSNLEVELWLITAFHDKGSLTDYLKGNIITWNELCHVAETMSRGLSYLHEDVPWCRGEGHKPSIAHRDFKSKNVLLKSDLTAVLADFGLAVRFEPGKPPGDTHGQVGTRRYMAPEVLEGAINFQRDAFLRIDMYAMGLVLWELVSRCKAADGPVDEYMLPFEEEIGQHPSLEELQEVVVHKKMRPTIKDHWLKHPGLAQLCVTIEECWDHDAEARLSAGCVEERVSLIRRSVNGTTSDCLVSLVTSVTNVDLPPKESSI

According to article PMC11191887, “Abstracts From the First Annual Research Day Hosted by the Michigan State University College of Osteopathic Medicine, Novi, Michigan, May 15, 2023” (Spartan Medical Research Journal, 2024):

Key:
Test in all cases: SPR; receptor-growth factor interaction; both purified
ActRIIA = ActRIIA (UniProt P27037)
BMPR2 = BMPR2 (UniProt Q13873)
ActRIIB = ActRIIB (UniProt Q13705)

B1: BMP9 (ligand, UniProt Q9UK05 320-429)
chain: SAGAGSHCQKTSLRVNFEDIGWDSWIIAPKEYEAYECKGGCFFPLADDVTPTKHAIVQTLVHLKFPTKVGKACCVPTKLSPISVLYKDDMGVPTLKYHYEGMSVAECGCR
ActRIIA
  binding: binds
BMPR2
  binding: binds

B2: BMP10 (ligand, UniProt O95393 317-424)
chain: NAKGNYCKRTPLYIDFKEIGWDSWIIAPPGYEAYECRGVCNYPLAEHLTPTKHAIIQALVHLKNSQKASKACCVPTKLEPISILYLDKGVVTYKFKYEGMAVSECGCR
ActRIIA
  binding: binds
ActRIIB
  binding: binds
BMPR2
  binding: binds

No constants are given. Whether binding was seen depends on the method and setting. Binding can be weak; no strength is given.
